In paper PMC7505474, “Toll-like receptor 4-mediated inflammation triggered by extracellular IFI16 is enhanced by lipopolysaccharide binding” (PLoS Pathogens, 2020) one finds binding data, which are given here for one substance.

By UniProt entry, the sequences of proteins in these tests, tags left out. Where a name states a change or a piece, a line headed by the entry shows the natural chain unless it says otherwise. Chains listed by the source or under a name are the forms on record and can include a tag or linker.
UniProt O00206: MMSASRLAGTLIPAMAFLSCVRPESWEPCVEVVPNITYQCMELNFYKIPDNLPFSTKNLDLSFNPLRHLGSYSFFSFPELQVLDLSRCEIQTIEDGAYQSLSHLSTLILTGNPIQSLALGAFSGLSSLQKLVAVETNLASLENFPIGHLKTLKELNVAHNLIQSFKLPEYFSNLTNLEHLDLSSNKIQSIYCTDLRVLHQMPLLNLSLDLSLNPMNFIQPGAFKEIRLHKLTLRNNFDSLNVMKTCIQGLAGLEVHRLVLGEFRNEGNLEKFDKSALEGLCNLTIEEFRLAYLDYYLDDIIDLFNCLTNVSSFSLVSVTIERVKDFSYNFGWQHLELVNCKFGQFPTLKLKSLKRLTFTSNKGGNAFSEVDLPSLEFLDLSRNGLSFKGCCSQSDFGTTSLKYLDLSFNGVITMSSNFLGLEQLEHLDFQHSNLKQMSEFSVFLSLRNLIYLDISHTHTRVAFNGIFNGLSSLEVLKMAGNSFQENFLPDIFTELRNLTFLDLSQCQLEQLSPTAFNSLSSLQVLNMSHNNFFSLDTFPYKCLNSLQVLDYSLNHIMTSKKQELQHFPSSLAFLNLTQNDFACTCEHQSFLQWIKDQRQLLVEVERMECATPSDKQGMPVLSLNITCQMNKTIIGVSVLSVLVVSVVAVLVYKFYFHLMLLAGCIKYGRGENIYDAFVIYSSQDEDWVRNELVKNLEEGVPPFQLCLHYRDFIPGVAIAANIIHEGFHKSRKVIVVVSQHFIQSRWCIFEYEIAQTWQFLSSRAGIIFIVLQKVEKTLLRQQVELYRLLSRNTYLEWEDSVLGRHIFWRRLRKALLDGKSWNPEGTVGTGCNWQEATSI
UniProt Q9Y6Y9: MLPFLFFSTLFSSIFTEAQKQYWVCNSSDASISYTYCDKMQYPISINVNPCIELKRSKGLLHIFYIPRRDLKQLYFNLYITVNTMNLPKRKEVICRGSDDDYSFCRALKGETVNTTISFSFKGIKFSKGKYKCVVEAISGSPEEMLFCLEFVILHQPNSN
human recombinant IFI16 protein (Q16666-2, form named): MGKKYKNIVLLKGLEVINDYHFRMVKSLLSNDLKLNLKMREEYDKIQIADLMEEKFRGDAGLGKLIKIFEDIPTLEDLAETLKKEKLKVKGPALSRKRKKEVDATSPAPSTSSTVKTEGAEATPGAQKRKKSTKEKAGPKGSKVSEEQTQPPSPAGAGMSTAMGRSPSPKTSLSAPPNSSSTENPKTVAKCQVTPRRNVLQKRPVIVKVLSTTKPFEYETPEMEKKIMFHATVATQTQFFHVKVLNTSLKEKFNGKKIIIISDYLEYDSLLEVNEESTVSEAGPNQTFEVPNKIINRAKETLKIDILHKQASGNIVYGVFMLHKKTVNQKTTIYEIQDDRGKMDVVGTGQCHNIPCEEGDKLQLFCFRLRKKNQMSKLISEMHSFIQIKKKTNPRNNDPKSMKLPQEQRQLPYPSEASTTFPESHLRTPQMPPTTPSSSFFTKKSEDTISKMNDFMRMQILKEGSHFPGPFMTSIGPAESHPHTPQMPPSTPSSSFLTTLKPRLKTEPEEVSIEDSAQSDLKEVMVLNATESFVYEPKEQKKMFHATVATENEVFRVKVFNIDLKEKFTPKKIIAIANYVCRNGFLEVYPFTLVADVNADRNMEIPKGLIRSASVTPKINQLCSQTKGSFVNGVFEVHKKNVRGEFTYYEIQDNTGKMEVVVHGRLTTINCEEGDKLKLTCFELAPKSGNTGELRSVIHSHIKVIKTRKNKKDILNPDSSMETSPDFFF

In this experiment the target is TLR4/MD2 receptor, endogenous in 786-O cells (human (endogenous in 786-O)) (UniProt O00206+Q9Y6Y9). Briefly: co-IP; 786-O cells stimulated for 1 h with recombinant IFI16 or IFI16/LPS-EB complex; 90 μg of RIPA total cell extract, untreated or DNase I-treated, incubated 1 h at RT with 2.5 μg anti-TLR4 antibody on protein G Dynabeads; blots for IFI16, TLR4 and MD2; only the binder purified.

These are yes or no findings as the source states them, for the method shown. In cells and extracts the contact can be indirect. Some results given as binding are weak or reduced against the parent protein; the word gives no strength.

Turning to “human recombinant IFI16 protein (from UniProt Q16666-2 1-729)”, the binding entry was “binds”.
